Laboratory results: PubChem BioAssay AID1347076 (National Center for Advancing Translational Sciences (NCATS), 2019)
About 13,000 (3.2%) of roughly 400,000 compounds were called active. The inconclusive results got no clear call from the source; some entries with a clear call stand among them for comparison. Calls follow the shape of the dose curve; as a rule, active = well fitted cell-killing curve with a large enough effect; inconclusive = small, poorly fitted or top-dose-only effect, or effect the other way; inactive = flat fitted curve, though single readings scatter. Where the call is inconclusive, the potency comes from a doubtful curve fit.
% is scaled to controls: 0 for no effect and ±100 for the full control effect; potency is read from the fitted curve at half-maximal effect.

Experiment: qHTS assay for MDR1-selective chemotherapeutics: Primary screen using the drug-selected MDR subline cells KB-V1; also: nearly all actives have a fitted effect of over 60% in size
Conditions: KB-V1 MDR cells viability, CellTiter-Glo, 72 h; activity change, negative = cytotoxicity: at 46.1 µM (top of the series)
How it was run: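 Compound-treated KB-V1 multidrug-resistant cells, 72 h, 37 degrees C; viability by CellTiter-Glo. Fitted qHTS curves give the values.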
For `Cc1cccc(S(=O)(=O)Nc2ccc3c(c2)OCCO3)c1`, the Potency was inconclusive: 20.6 µM [cytotoxic, single point].
For `CCOc1ccc(C(C)=O)cc1N1C(=O)C2C3C=CC(O3)C2C1=O` (stereo not given), the “activity change, negative = cytotoxicity” value was inactive: 9.3%.
With `COc1ccc(C(CC(=O)O)NC(=O)c2ccccc2)cc1OC` (stereo not given) the “activity change, negative = cytotoxicity” value was inactive: -2.06%.
For `O=C(CCn1c(=O)[nH]c2ccsc2c1=O)N1CCN(c2cccc(Cl)c2)CC1`, the “activity change, negative = cytotoxicity” value was inactive: 2.35%.
For `CN1CCc2c(sc3c2c(=O)n(-c2ccccc2)c2nnc(SCc4ccc(Cl)cc4)n32)C1`, the “activity change, negative = cytotoxicity” value was inactive: 10.2%.
For `CN(C)c1ccc(-c2cccc(C3CC=CC4C3C(=O)N(Cc3ccccc3)C4c3ccc4ccccc4c3)c2)cc1` (stereo not given), the activity change, negative = cytotoxicity was inconclusive: 5.66%.
For `CCOC(=O)CSc1n[nH]c(NS(=O)(=O)c2ccccc2C(F)(F)F)n1`, the “activity change, negative = cytotoxicity” value was inactive: -18.9%.
With `Cc1ccc2c(c1)C(=O)C(=O)N2Cc1ccc(Br)cc1` the Potency was inconclusive: 20.6 µM [cytotoxic, partial curve].
In the case of `Cc1ccc(Cl)cc1N1CCN(S(=O)(=O)c2c(C)noc2C)CC1`, the “activity change, negative = cytotoxicity” value is reported as inactive: -18.4%.
For `COc1ccc(-n2cc(C(=O)OCc3ccc(F)c(F)c3)c3ccccc3c2=O)cc1`, the “activity change, negative = cytotoxicity” value was inactive: 11.2%.
For `Cc1ccc(C(=O)NC(=S)Nc2ccc(CN3CCOCC3)cc2)cc1`, the “activity change, negative = cytotoxicity” value was inactive: -6.2%.
With `Cc1cc(C)n2nc(C(=O)Nc3ccc(S(=O)(=O)N4CCCC4)cc3)nc2n1` the Potency was inconclusive: 32.6 µM [rising, partial curve, poor fit].
With `Cn1cccc1/C=C1\CC(C(C)(C)C)C/C(=C\c2cccn2C)C1=O` (stereo not given) the Potency was active: 4.11 µM.
In the case of `COc1ccc2cc(C(C)C(=O)Nc3cccc(S(=O)(=O)N(C)C)c3)ccc2c1` (stereo not given), the Potency is reported as active: 13 µM.
For `Cc1cccc(N2CCN(C(=O)CCc3c(C)nc4c(c3C)c(=O)n(C)c(=O)n4C)CC2)c1C`, the Potency was inconclusive: 29.1 µM [rising, single point].
In the case of `COc1ccc(OCCSc2nnc(C(C)NC(=O)c3ccccc3F)n2C)cc1` (stereo not given), the Potency is reported as inconclusive: 25.9 µM [cytotoxic, partial curve, poor fit].
With `Cc1ccc(C(=O)N2CCN(C(=O)c3ccccc3)C2c2ccc(N(C)C)cc2)cc1` (stereo not given) the Potency was inconclusive: 1.64 µM [cytotoxic, full curve].
With `O=C(NC1(C(F)(F)F)C(=O)Nc2c1c(=O)[nH]c(=O)n2-c1ccc(F)cc1)c1ccccc1` (stereo not given) the Potency was inconclusive: 9.2 µM [rising, partial curve].
For `COc1ccc([C@H]2C[C@@H](n3cc(-c4ccc(F)cc4)nn3)[C@H](O)CN2Cc2cccs2)cc1`, the activity change, negative = cytotoxicity was inconclusive: -38.9%.
With `COc1ccc(CNC(=O)C/C(C)=N/NC(=O)COc2ccc(C)cc2Br)cc1` the Potency was inconclusive: 20.6 µM [cytotoxic, single point].
For `COc1ccc(C(C)=O)cc1COC(=O)c1c(C)noc1C`, the Potency was inconclusive: 20.6 µM [cytotoxic, single point].
With `CC(C)(C)n1nnnc1C(c1cccs1)N1CCN(c2ccccc2)CC1` (stereo not given) the Potency was inconclusive: 7.31 µM [cytotoxic, partial curve].
In the case of `Cc1occc1C(=O)NNC(=S)NC(=O)COc1ccc(Cl)cc1Cl`, the Potency is reported as inconclusive: 14.6 µM [cytotoxic, partial curve].
In the case of `Cc1cccc(N(CC(=O)N2CCN(c3ccc(F)cc3)CC2)S(C)(=O)=O)c1C`, the Potency is reported as inconclusive: 14.6 µM [cytotoxic, partial curve].
In the case of `CCCNC(=O)c1ccccc1NC(=O)C1COc2ccccc2O1` (stereo not given), the Potency is reported as inconclusive: 28.2 µM [cytotoxic, single point].
For `CN(C(=O)c1ccc(-c2ccccc2)cc1)C1CCCCC1`, the “activity change, negative = cytotoxicity” value was inactive: -25.9%.
In the case of `Cc1cc(C(=O)CN2C(=O)NC(C)(c3cc(F)ccc3F)C2=O)c(C)n1C1CC1` (stereo not given), the “activity change, negative = cytotoxicity” value is reported as inactive: -0.0751%.
For `COc1ccc(CC(=O)N/N=C(\C)CC(=O)NCc2ccco2)cc1OC`, the Potency was inconclusive: 4.61 µM [rising, full curve, poor fit].
With `COc1cccc(-c2c(C(=O)N/N=C/c3ccsc3)nnn2-c2nonc2N)c1` the activity change, negative = cytotoxicity was inconclusive: -8.16%.
For `COc1ccc(S(=O)(=O)/C(C#N)=C/Nc2ccccc2F)cc1`, the “activity change, negative = cytotoxicity” value was inactive: 14.6%.
In the case of `Cc1ccccc1Nc1nc(N)nc(CSc2nc3ccccc3c(=O)n2CCCO)n1`, the “activity change, negative = cytotoxicity” value is reported as inactive: -22%.
For `Cc1ccc(CN2CCC(C)(Oc3ccc(Cl)cc3)C2)cc1` (stereo not given), the Potency was inconclusive: 16.4 µM [cytotoxic, partial curve].
With `CC1(C)CC(=O)C=C(NC2CCCCC2)C1` the activity change, negative = cytotoxicity was inconclusive: 1.05%.
For `CCOC(=O)c1c(NC(=O)Nc2ccc(C)cc2)sc2c1CCN(C)C2`, the “activity change, negative = cytotoxicity” value was inactive: -23.7%.
In the case of `CCCN(CC(=O)Nc1cc(Cl)cc(Cl)c1)CC(=O)Nc1ccc(F)c(F)c1F`, the Potency is reported as active: 23.1 µM.
With `COc1ccc(NC(=S)N(CCCN2CCC(C)CC2)Cc2cccs2)cc1` the Potency was inconclusive: 11.6 µM [cytotoxic, partial curve].
For `Cc1ccc(NC(=O)CCNS(=O)(=O)c2ccc(Br)s2)cc1`, the Potency was inconclusive: 8.2 µM [cytotoxic, partial curve, poor fit].
With `CNCCCC1c2ccccc2C=Cc2ccccc21` the Potency was inconclusive: 18.4 µM [cytotoxic, partial curve, poor fit].
For `CCc1ccc2[nH]c3nc(C)cc(C)c3c(=O)c2c1`, the Potency was active: 6.51 µM.
For `CC(OC(=O)c1nsc(Cl)c1Cl)C(=O)NC1CCCCC1` (stereo not given), the Potency was inconclusive: 3.26 µM [rising, partial curve, poor fit].
In the case of `Nc1c(C(=O)O)cnc2c(-c3ccc(Cl)cc3)cnn12`, the Potency is reported as inconclusive: 29.1 µM [cytotoxic, single point].
With `N#Cc1ccc(OCC(O)CN2CCN(CC(O)COc3ccc(C#N)cc3)CC2)cc1` (stereo not given) the Potency was inconclusive: 9.2 µM [cytotoxic, partial curve].
In the case of `COc1ccc(C(C)(C)C)cc1NC(=O)c1ccoc1C`, the Potency is reported as inconclusive: 20.6 µM [cytotoxic, partial curve].
With `Cc1ccsc1/C=N\NC(=O)c1ccc2c(c1)OCO2` the Potency was inconclusive: 16.4 µM [cytotoxic, single point].
With `O=C1C=C(c2cc(Cl)cc(Cl)c2)C[C@@H](c2ccc(F)cc2)C1` the Potency was inconclusive: 7.31 µM [rising, single point].
For `O=C(Cc1ccccc1)Nc1scc(-c2ccccc2)c1C(=O)N1CCOCC1`, the Potency was inconclusive: 23.1 µM [cytotoxic, partial curve, poor fit].
In the case of `CC(NC(=O)c1cccc(N(C)C)c1)c1ccc(-n2ccnc2)cc1` (stereo not given), the Potency is reported as inconclusive: 23.1 µM [cytotoxic, single point].
For `CCOC(=O)c1c(C)[nH]c(C(=O)COC(=O)c2ccc([N+](=O)[O-])o2)c1C`, the Potency was inconclusive: 2.91 µM [cytotoxic, single point].
In the case of `O=C1C=CC(=O)c2c(O)c(N3CCN(CCO)CC3)c(Cl)c(O)c21`, the Potency is reported as inconclusive: 6.51 µM [cytotoxic, partial curve].
For `Cc1cccn2c(=O)c3cc(C(=O)NC4CCCCC4)c(=N)n(CCN4CCOCC4)c3nc12`, the “activity change, negative = cytotoxicity” value was inactive: 7.45%.
For `O=C(Nc1nc(-c2cccc3ccccc23)cs1)c1cnccn1`, the Potency was inconclusive: 20.6 µM [cytotoxic, single point].
For `COc1cccc(C=NCCCN=Cc2cccc(OC)c2O)c1O`, the Potency was inconclusive: 29.1 µM [rising, single point].
For `Cc1ccccc1-c1nc2cc(NC(=O)c3cccc(OCCC(C)C)c3)ccc2o1`, the Potency was inconclusive: 16.4 µM [cytotoxic, partial curve, poor fit].
In the case of `Cc1ccc(S(=O)(=O)/N=C(/Nc2cccc3ccccc23)c2ccc(F)cc2)cc1`, the Potency is reported as inconclusive: 29.1 µM [cytotoxic, single point].
In the case of `Cc1nc2ccccc2c(=O)n1CCc1ccccc1`, the “activity change, negative = cytotoxicity” value is reported as inactive: -9.14%.
With `CC1CCN(C2=C(NS(=O)(=O)c3ccc(Cl)cc3)C(=O)c3ccccc3C2=O)CC1` the “activity change, negative = cytotoxicity” value was inactive: 7.47%.
In the case of `O=C(CSc1oc(-c2ccc(F)cc2)nc1S(=O)(=O)c1ccccc1)NCC1CCCO1` (stereo not given), the Potency is reported as inconclusive: 7.31 µM [cytotoxic, partial curve].
In the case of `Clc1ccc(-c2cc(COc3ccccc3)on2)cc1`, the Potency is reported as inconclusive: 5.8 µM [rising, full curve].
In the case of `C[C@H](Nc1ncnc2sc3c(c12)CCC3)C(=O)O`, the Potency is reported as inconclusive: 10.3 µM [rising, partial curve, poor fit].
With `CCc1ccc(C(=O)c2ccccc2C(=O)O)s1` the Potency was inconclusive: 0.651 µM [rising, partial curve, poor fit].
In the case of `COc1ccc(N2CCN(C(=O)CN3CCN(c4nc(-c5ccc(F)cc5)cs4)CC3)CC2)cc1`, the Potency is reported as inconclusive: 5.8 µM [cytotoxic, partial curve].
With `CCOC(=O)C1CCN(C(=O)CN(C)S(=O)(=O)c2cc(C)ccc2OC)CC1` the Potency was active: 23.1 µM.
In the case of `O=C1CC(c2ccc3c(c2)OCCO3)Oc2ccc([N+](=O)[O-])cc21` (stereo not given), the Potency is reported as inconclusive: 29.1 µM [cytotoxic, single point].
In the case of `Cc1cccc(OCc2n(CC(=O)OC3CC(C)CCC3C(C)C)c3ccccc3[n+]2C)c1` (stereo not given), the activity change, negative = cytotoxicity is reported as inconclusive: 65.5%.
With `Cc1cccn2c(=O)c(C=O)c(N3CCN(C)CC3)nc12` the “activity change, negative = cytotoxicity” value was inactive: -0.168%.
For `Cc1cccc(C)c1NC(=O)CNC(=O)C(NC(=O)c1ccc(C(C)(C)C)cc1)C(C)C` (stereo not given), the Potency was inconclusive: 18.4 µM [cytotoxic, partial curve].
In the case of `CCOc1ccc2[nH]c3c(NCCN(CC)CC)ncnc3c2c1`, the “activity change, negative = cytotoxicity” value is reported as inactive: 0%.
With `COc1cccc(C2/C(=C(/O)c3ccc4c(c3)CC(C)O4)C(=O)C(=O)N2c2nnc(C)s2)c1` (stereo not given) the Potency was inconclusive: 16.4 µM [rising, partial curve].
In the case of `CCOc1ccccc1C1CC(=O)NC(SCC(=O)Nc2nccs2)=C1C#N` (stereo not given), the “activity change, negative = cytotoxicity” value is reported as inactive: 9.05%.
For `Cc1ccc(NS(=O)(=O)c2ccccc2[N+](=O)[O-])cc1C`, the Potency was inconclusive: 29.1 µM [rising, single point].
